This note sets out measurements from PMC8056045.

Protein sequences, listed by entry. Tags and fused reporters are not part of them.
UniProt Q9LTA2: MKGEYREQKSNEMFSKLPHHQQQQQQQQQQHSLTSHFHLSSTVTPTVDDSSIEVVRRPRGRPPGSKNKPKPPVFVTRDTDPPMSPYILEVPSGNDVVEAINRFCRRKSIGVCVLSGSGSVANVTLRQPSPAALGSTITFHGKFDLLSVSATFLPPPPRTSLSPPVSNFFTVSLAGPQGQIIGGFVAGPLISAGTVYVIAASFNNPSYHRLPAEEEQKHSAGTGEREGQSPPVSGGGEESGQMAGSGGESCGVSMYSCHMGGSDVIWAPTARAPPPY
UniProt Q9S7C9: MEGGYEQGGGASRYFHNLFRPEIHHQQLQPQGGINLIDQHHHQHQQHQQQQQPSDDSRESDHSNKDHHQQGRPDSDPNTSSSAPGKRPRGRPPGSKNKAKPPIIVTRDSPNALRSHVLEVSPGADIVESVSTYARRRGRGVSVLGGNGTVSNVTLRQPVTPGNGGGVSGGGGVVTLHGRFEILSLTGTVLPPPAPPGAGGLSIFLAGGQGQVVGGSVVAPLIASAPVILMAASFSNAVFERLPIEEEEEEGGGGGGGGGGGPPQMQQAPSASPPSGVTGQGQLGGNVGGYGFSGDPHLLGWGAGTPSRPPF
UniProt O23620: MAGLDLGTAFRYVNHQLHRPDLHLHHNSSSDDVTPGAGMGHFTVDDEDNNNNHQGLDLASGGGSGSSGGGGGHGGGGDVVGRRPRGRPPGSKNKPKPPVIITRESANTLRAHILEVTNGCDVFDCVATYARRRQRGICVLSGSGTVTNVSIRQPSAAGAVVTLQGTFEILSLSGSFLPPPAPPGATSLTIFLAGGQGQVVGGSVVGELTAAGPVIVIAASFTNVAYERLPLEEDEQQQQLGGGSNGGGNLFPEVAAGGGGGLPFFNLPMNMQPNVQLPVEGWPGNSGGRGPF
UniProt Q9C9K7: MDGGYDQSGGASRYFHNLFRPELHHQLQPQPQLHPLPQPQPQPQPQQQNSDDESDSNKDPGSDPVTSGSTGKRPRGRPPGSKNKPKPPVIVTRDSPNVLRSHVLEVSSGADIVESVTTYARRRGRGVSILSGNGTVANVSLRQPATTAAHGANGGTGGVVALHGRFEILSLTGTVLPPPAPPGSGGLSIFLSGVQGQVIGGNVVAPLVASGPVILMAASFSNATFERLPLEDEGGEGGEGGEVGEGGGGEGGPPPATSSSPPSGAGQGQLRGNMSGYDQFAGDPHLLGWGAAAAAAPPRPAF
UniProt O22130: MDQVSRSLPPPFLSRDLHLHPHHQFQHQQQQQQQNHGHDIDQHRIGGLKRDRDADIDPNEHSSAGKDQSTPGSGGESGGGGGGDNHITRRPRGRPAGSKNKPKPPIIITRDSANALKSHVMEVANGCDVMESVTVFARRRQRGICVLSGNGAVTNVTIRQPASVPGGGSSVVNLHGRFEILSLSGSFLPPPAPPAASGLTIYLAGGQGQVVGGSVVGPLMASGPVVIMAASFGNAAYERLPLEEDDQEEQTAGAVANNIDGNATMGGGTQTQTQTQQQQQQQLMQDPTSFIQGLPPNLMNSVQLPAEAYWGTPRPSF

No constants are given. Whether binding was seen depends on the method and setting.

The experiment deals with T1, plant and prokaryotes conserved (PPC) domain of AHL4 (Arabidopsis thaliana) (UniProt Q9FHM5).
T1 sequence: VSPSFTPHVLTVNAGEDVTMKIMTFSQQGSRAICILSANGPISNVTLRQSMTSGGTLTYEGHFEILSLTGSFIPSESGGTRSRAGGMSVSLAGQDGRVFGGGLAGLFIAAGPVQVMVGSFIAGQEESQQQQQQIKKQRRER
Put plainly: two-hybrid; ProQuest two-hybrid system (Invitrogen) in yeast; bait in pDEST32 (GAL4 DNA-binding domain), prey in pDEST22 (GAL4 activation domain); 3-AT assay: growth on SD3- (Leu-/Trp-/His-) media with 0, 10, 20 and 40 mM 3-AT, 30°C, 2 days; criterion of interaction: a colony on SD3- media with 20 mM 3-AT.
For “AT-HOOK MOTIF NUCLEAR LOCALIZED PROTEIN 17 (AHL17) (from UniProt Q9LTA2 1-276)”, the binding result was “no binding”.

In the case of “AT-HOOK MOTIF NUCLEAR LOCALIZED PROTEIN 27 (AHL27) (from UniProt Q9S7C9 1-311)”, the binding entry is “no binding”.

In the case of “AT-HOOK MOTIF NUCLEAR LOCALIZED PROTEIN 23 (AHL23) (from UniProt O23620 1-292)”, the binding entry was “no binding”.

Take “AT-HOOK MOTIF NUCLEAR LOCALIZED PROTEIN 29 (AHL29) (from UniProt Q9C9K7 1-302)”: the binding entry was “no binding”. Regarding “AT-HOOK MOTIF NUCLEAR LOCALIZED PROTEIN 22 (AHL22) (from UniProt O22130 1-317)”, the binding result is reported as “no binding”.
